These are yes or no findings as the source states them, for the method shown. In cells and extracts the contact can be indirect. Binding can be weak; no strength is given.
Biological target: mNeonGreen-tagged T-bet DNA binding domain (aa 135-326) Q160A (mouse) (UniProt Q9JKD8)
Test: co-IP; HEK293T cells transiently transfected with mNeonGreen-tagged and HA-tagged proteins; lysates (300 mM NaCl, 0.5% IGEPAL CA-630) treated with benzonase, diluted to 150 mM NaCl, mNeonGreen-Trap magnetic agarose beads 1 hr at 4°C; washes with 150 mM and 500 mM NaCl; immunoblot with anti-HA

Chains of the proteins cited; added tags and fusions are not shown. Lines headed by an entry give the natural chain unless they say otherwise; changes in a name come on top.
UniProt Q9JKD8: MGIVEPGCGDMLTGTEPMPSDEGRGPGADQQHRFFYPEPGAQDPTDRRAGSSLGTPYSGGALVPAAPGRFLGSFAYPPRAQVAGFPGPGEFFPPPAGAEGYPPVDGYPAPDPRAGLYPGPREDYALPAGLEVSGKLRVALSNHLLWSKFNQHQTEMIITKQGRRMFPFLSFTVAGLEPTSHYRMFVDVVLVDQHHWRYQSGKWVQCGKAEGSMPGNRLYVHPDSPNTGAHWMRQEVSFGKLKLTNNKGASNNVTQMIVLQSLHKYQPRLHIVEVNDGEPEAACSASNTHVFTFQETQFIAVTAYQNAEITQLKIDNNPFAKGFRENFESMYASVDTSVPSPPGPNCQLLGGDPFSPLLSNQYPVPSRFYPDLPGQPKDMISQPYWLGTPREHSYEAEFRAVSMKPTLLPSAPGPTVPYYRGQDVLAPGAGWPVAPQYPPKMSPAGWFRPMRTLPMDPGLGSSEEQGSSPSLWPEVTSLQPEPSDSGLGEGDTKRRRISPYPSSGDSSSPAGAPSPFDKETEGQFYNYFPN
UniProt P23772: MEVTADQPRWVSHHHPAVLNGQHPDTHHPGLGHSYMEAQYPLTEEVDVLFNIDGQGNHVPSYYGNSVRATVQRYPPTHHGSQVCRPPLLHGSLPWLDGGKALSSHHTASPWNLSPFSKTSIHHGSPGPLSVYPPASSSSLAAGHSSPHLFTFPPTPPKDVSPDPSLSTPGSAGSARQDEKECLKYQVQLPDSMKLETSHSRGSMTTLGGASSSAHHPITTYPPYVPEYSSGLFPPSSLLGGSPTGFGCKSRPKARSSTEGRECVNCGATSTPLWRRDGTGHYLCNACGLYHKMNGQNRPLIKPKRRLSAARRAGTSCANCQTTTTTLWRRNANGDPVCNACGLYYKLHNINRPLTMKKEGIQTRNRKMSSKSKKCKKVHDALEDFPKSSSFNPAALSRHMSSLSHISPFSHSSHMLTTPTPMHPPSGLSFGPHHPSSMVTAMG

- binding: binds
Substance: full-length GATA3 with C-terminal double HA tag (from UniProt P23772 1-443)
